Results deposited as PubChem BioAssay AID743121 (NCATS, 2013)

Screen: 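Partners whose loss is lethal together with topoisomerase I blockade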 (primary screen)
System: MDA-MB-231 cells, a human breast cancer line
Knock-down reagent: single siRNA against human genes, 20 nM siRNA (0.8 pmol per well)
Timing: 120 h (drug added 48 h after transfection, read 72 h later)
Treatment: camptothecin 20 nM (about EC30) for 72 h; vehicle 0.1% DMSO in parallel plates
Measurement: 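Cell viability by ATP luminescence (CellTiter-Glo) as % of non-targeting siRNA wells, and the log2 ratio of viability without drug over viability with camptothecin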
Reading the numbers: log2 vehicle/camptothecin viability: higher = stronger sensitisation to camptothecin; viability with camptothecin and viability without drug: higher = more viable cells
Active means: 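Each gene scored by redundant siRNA activity (RSA) over its individual siRNA ratios; a gene is called active at p < 0.001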
Shown is an unselected part of about 26,000 deposited reagents. 167 of all reagents (0.63%) count as active. 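Calls are per gene from RSA p-values that are not deposited; an individual active-marked siRNA can sensitise only weakly.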 Unmarked entries are inactive. The numbers tell different reagents against one gene apart.

The first 8 entries as a preview:
Target gene | reagent no. | log2 vehicle/camptothecin viability | viability with camptothecin (% of control) | viability without drug (% of control)
PANK3 (GeneID 79646) | 1 | -0.576 | 37.6 | 25.2
PANK3 (GeneID 79646) | 2 | -0.284 | 120 | 98.4
PANK3 (GeneID 79646) | 3 | -0.4 | 97.4 | 73.8
PANK3 (GeneID 79646) | 4 | -0.0114 | 73.5 | 72.9
SNX21 (GeneID 90203) | 1 | -0.196 | 57.4 | 50.1
SNX21 (GeneID 90203) | 2 | 0.284 | 77.6 | 94.5
SNX21 (GeneID 90203) | 3 | -0.255 | 88.1 | 73.8
KCNB1 (GeneID 3745) | 1 | 0.317 | 71.9 | 89.5

The list itself, from the first entry:
Target gene | reagent no. | log2 vehicle/camptothecin viability | viability with camptothecin (% of control) | viability without drug (% of control)
PANK3 (GeneID 79646) | 1 | -0.576 | 37.6 | 25.2
PANK3 (GeneID 79646) | 2 | -0.284 | 120 | 98.4
PANK3 (GeneID 79646) | 3 | -0.4 | 97.4 | 73.8
PANK3 (GeneID 79646) | 4 | -0.0114 | 73.5 | 72.9
SNX21 (GeneID 90203) | 1 | -0.196 | 57.4 | 50.1
SNX21 (GeneID 90203) | 2 | 0.284 | 77.6 | 94.5
SNX21 (GeneID 90203) | 3 | -0.255 | 88.1 | 73.8
KCNB1 (GeneID 3745) | 1 | 0.317 | 71.9 | 89.5
KCNB1 (GeneID 3745) | 2 | -0.725 | 117 | 71
KCNB1 (GeneID 3745) | 3 | -0.256 | 76.9 | 64.4
KCNB1 (GeneID 3745) | 4 | 0.00831 | 75.4 | 75.9
CILK1 (GeneID 22858) | 1 | -0.695 | 85.4 | 52.7
CILK1 (GeneID 22858) | 2 | -0.138 | 85 | 77.3
CILK1 (GeneID 22858) | 3 | -0.403 | 104 | 78.3
CILK1 (GeneID 22858) | 4 | 0.124 | 99.1 | 108
PCMTD1 (GeneID 115294) | 1 | -0.114 | 110 | 101
PCMTD1 (GeneID 115294) | 2 | -0.322 | 62.3 | 49.9
PCMTD1 (GeneID 115294) | 3 | -0.269 | 106 | 87.6
PCMTD1 (GeneID 115294) | 4 | -0.329 | 95.2 | 75.8
ARHGEF2 (GeneID 9181) | 1 | -0.361 | 78 | 60.8
ARHGEF2 (GeneID 9181) | 2 | -0.324 | 91.4 | 73
ARHGEF2 (GeneID 9181) | 3 | -0.514 | 78.4 | 54.9
ARHGEF2 (GeneID 9181) | 4 | -0.348 | 73 | 57.3
PABPN1 (GeneID 8106) | 1 | -0.302 | 90.1 | 73.1
PABPN1 (GeneID 8106) | 2 | -0.0454 | 88.5 | 85.8
TYK2 (GeneID 7297) | 1 | -0.128 | 93.1 | 85.2
TYK2 (GeneID 7297) | 2 | -0.468 | 82.9 | 60
TYK2 (GeneID 7297) | 3 | -0.0305 | 98.8 | 96.7
TYK2 (GeneID 7297) | 4 | -0.241 | 107 | 90.5
GHR (GeneID 2690) | 1 | 0.133 | 71.6 | 78.5
GHR (GeneID 2690) | 2 | 0.131 | 58 | 63.5
GHR (GeneID 2690) | 3 | 0.00713 | 102 | 103
GHR (GeneID 2690) | 4 | -0.34 | 88 | 69.5
SLC9A8 (GeneID 23315) | 1 | -0.189 | 56.7 | 49.7
SLC9A8 (GeneID 23315) | 2 | 0.229 | 62.3 | 73.1
SLC9A8 (GeneID 23315) | 3 | -0.508 | 80 | 56.3
SLC9A8 (GeneID 23315) | 4 | 0.35 | 62.5 | 79.7
ARHGEF6 (GeneID 9459) | 1 | -0.0695 | 100 | 95.6
ARHGEF6 (GeneID 9459) | 2 | -0.505 | 104 | 73.4
ARHGEF6 (GeneID 9459) | 3 | -0.33 | 108 | 85.8
ARHGEF6 (GeneID 9459) | 4 | 0.115 | 83.8 | 90.8
SIPA1 (GeneID 6494) | 1 | -0.453 | 37.9 | 27.7
SIPA1 (GeneID 6494) | 2 | -0.2 | 66.6 | 58
SIPA1 (GeneID 6494) | 3 | 0.34 | 73.9 | 93.5
SIPA1 (GeneID 6494) | 4 | 0.025 | 71 | 72.2
TXN2 (GeneID 25828) | 1 | -0.479 | 53 | 38
TXN2 (GeneID 25828) | 2 | -0.572 | 83.8 | 56.4
TXN2 (GeneID 25828) | 3 | -0.0759 | 47.3 | 44.9
TXN2 (GeneID 25828) | 4 | -0.514 | 35.6 | 25
FDFT1 (GeneID 2222) | 1 | -0.501 | 69.8 | 49.3
FDFT1 (GeneID 2222) | 2 | -0.0168 | 71 | 70.1
FDFT1 (GeneID 2222) | 3 | 0.311 | 47.5 | 58.9
ASB8 (GeneID 140461) | 1 | 0.0176 | 71.8 | 72.7
ASB8 (GeneID 140461) | 2 | -0.296 | 106 | 86.5
ASB8 (GeneID 140461) | 3 | 0.0782 | 93.2 | 98.4
ASB8 (GeneID 140461) | 4 | -0.126 | 77.1 | 70.7
CYB5R4 (GeneID 51167) | 1 | -0.44 | 58.4 | 43.1
CYB5R4 (GeneID 51167) | 2 | -0.296 | 98.4 | 80.2
CYB5R4 (GeneID 51167) | 3 | -0.22 | 118 | 101
CYB5R4 (GeneID 51167) | 4 | -0.267 | 84.5 | 70.2
SPP1 (GeneID 6696) | 1 | -0.167 | 94.6 | 84.2
SPP1 (GeneID 6696) | 2 | -0.444 | 113 | 82.9
SPP1 (GeneID 6696) | 3 | -0.163 | 46.6 | 41.6
SPP1 (GeneID 6696) | 4 | 0.0237 | 83.1 | 84.4
DIAPH1 (GeneID 1729) | 1 | -0.49 | 62.3 | 44.4
DIAPH1 (GeneID 1729) | 2 | -0.285 | 78.6 | 64.5
DIAPH1 (GeneID 1729) | 3 | -0.327 | 80.9 | 64.5
DIAPH1 (GeneID 1729) | 4 | -0.222 | 71.8 | 61.6
